According to ChEMBL document CHEMBL6074683, “Design, synthesis and investigation of biological activity and mechanism of fluoroaryl-substituted derivatives at the FL118 position 7” (Eur J Med Chem, 2025):

What was measured:
Assay type in all cases: functional, cell-based
HepG2 = test: Cytotoxicity against human HepG2 cells incubated for 72 hrs by MTT assay; details: HepG2, 72 h
HeLa = test: Cytotoxicity against human HeLa cells incubated for 72 hrs by MTT assay
HCT-116 = test: Cytotoxicity against human HCT-116 cells incubated for 72 hrs by MTT assay; details: HCT-116, 72 h
A549 = test: Cytotoxicity against human A549 cells incubated for 72 hrs by MTT assay; details: A549, 72 h

Q: Which IC50 (HepG2) does the source give for `CC[C@@]1(O)C(=O)OCc2c1cc1n(c2=O)Cc2c-1nc1cc3c(cc1c2-c1ccc(F)c(OC)c1)OCO3` here?
A: 0.137 µM

Q: What about the IC50 (HeLa) of the same compound?
A: 0.0729 µM

Q: What about the IC50 (HCT-116) of the same compound?
A: 0.0361 µM

Q: What about the IC50 (A549) of the same compound?
A: 0.0337 µM
